## Results from one PubChem assay

From PubChem BioAssay record AID504749 (NCATS, 2011).

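Malaria parasite (P. falciparum) lines kept in red blood cells; parasite DNA is measured by SYBR Green fluorescence after lysis, 72 h after compound addition.
Each compound was titrated across a series from about 0.000037 to 29 µM.
The number is the fitted AC50, the concentration giving a half-maximal change in signal; a lower value means higher potency, whether the curve shows a decrease or an increase.
Calls follow the curve class and fit quality: every row here is inconclusive, covering signal-raising curves and weak, poorly fitted, partial or highest-dose-only inhibition curves.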

Values are in µM.
Every entry below has the call inconclusive.
These entries are mostly ones the record files as inconclusive; other results of the assay are not listed here.
Potencies fitted to partial, single-point or poorly fitting curves are rough.
Some entries filed as inconclusive have a full curve.

SMILES,tested on / at,fitted potency (µM),curve as filed
CO[C@H]1[C@H](O[C@H]2O[C@@H](C)[C@@H](O[C@@H]3C[C@](C)(O)[C@H](OC(=O)CC(C)C)[C@H](C)O3)[C@@H](N(C)C)[C@@H]2O)[C@@H](CC=O)C[C@@H](C)[C@@H](O)/C=C\C=C/C[C@@H](C)OC(=O)C[C@H]1OC(C)=O,CP260,1.585,"inhibitor, partial curve"
CO[C@H]1[C@H](O[C@H]2O[C@@H](C)[C@@H](O[C@@H]3C[C@](C)(O)[C@H](OC(=O)CC(C)C)[C@H](C)O3)[C@@H](N(C)C)[C@@H]2O)[C@@H](CC=O)C[C@@H](C)[C@@H](O)/C=C\C=C/C[C@@H](C)OC(=O)C[C@H]1OC(C)=O,DIV17,8.087,"inhibitor, single point"
CO[C@H]1[C@H](O[C@H]2O[C@@H](C)[C@@H](O[C@@H]3C[C@](C)(O)[C@H](OC(=O)CC(C)C)[C@H](C)O3)[C@@H](N(C)C)[C@@H]2O)[C@@H](CC=O)C[C@@H](C)[C@@H](O)/C=C\C=C/C[C@@H](C)OC(=O)C[C@H]1OC(C)=O,CP194,1.811,"inhibitor, partial curve"
CO[C@H]1[C@H](O[C@H]2O[C@@H](C)[C@@H](O[C@@H]3C[C@](C)(O)[C@H](OC(=O)CC(C)C)[C@H](C)O3)[C@@H](N(C)C)[C@@H]2O)[C@@H](CC=O)C[C@@H](C)[C@@H](O)/C=C\C=C/C[C@@H](C)OC(=O)C[C@H]1OC(C)=O,PAD,1.995,"inhibitor, partial curve"
CO[C@H]1[C@H](O[C@H]2O[C@@H](C)[C@@H](O[C@@H]3C[C@](C)(O)[C@H](OC(=O)CC(C)C)[C@H](C)O3)[C@@H](N(C)C)[C@@H]2O)[C@@H](CC=O)C[C@@H](C)[C@@H](O)/C=C\C=C/C[C@@H](C)OC(=O)C[C@H]1OC(C)=O,CP269,2.279,"inhibitor, partial curve"
CO[C@H]1[C@H](O[C@H]2O[C@@H](C)[C@@H](O[C@@H]3C[C@](C)(O)[C@H](OC(=O)CC(C)C)[C@H](C)O3)[C@@H](N(C)C)[C@@H]2O)[C@@H](CC=O)C[C@@H](C)[C@@H](O)/C=C\C=C/C[C@@H](C)OC(=O)C[C@H]1OC(C)=O,ATS95,1.995,"inhibitor, partial curve"
CO[C@H]1[C@H](O[C@H]2O[C@@H](C)[C@@H](O[C@@H]3C[C@](C)(O)[C@H](OC(=O)CC(C)C)[C@H](C)O3)[C@@H](N(C)C)[C@@H]2O)[C@@H](CC=O)C[C@@H](C)[C@@H](O)/C=C\C=C/C[C@@H](C)OC(=O)C[C@H]1OC(C)=O,CP250,3.162,"inhibitor, single point"
CO[C@H]1[C@H](O[C@H]2O[C@@H](C)[C@@H](O[C@@H]3C[C@](C)(O)[C@H](OC(=O)CC(C)C)[C@H](C)O3)[C@@H](N(C)C)[C@@H]2O)[C@@H](CC=O)C[C@@H](C)[C@@H](O)/C=C\C=C/C[C@@H](C)OC(=O)C[C@H]1OC(C)=O,CP329,2.869,"inhibitor, partial curve"
CO[C@H]1[C@H](O[C@H]2O[C@@H](C)[C@@H](O[C@@H]3C[C@](C)(O)[C@H](OC(=O)CC(C)C)[C@H](C)O3)[C@@H](N(C)C)[C@@H]2O)[C@@H](CC=O)C[C@@H](C)[C@@H](O)/C=C\C=C/C[C@@H](C)OC(=O)C[C@H]1OC(C)=O,P94_40,0.7079,"inhibitor, full curve"
CO[C@H]1[C@H](O[C@H]2O[C@@H](C)[C@@H](O[C@@H]3C[C@](C)(O)[C@H](OC(=O)CC(C)C)[C@H](C)O3)[C@@H](N(C)C)[C@@H]2O)[C@@H](CC=O)C[C@@H](C)[C@@H](O)/C=C\C=C/C[C@@H](C)OC(=O)C[C@H]1OC(C)=O,CP252,1.995,"inhibitor, partial curve"
CO[C@H]1[C@H](O[C@H]2O[C@@H](C)[C@@H](O[C@@H]3C[C@](C)(O)[C@H](OC(=O)CC(C)C)[C@H](C)O3)[C@@H](N(C)C)[C@@H]2O)[C@@H](CC=O)C[C@@H](C)[C@@H](O)/C=C\C=C/C[C@@H](C)OC(=O)C[C@H]1OC(C)=O,CP291,1.811,"inhibitor, partial curve"
CO[C@H]1[C@H](O[C@H]2O[C@@H](C)[C@@H](O[C@@H]3C[C@](C)(O)[C@H](OC(=O)CC(C)C)[C@H](C)O3)[C@@H](N(C)C)[C@@H]2O)[C@@H](CC=O)C[C@@H](C)[C@@H](O)/C=C\C=C/C[C@@H](C)OC(=O)C[C@H]1OC(C)=O,TAB165,1.413,"inhibitor, partial curve"
CO[C@H]1[C@H](O[C@H]2O[C@@H](C)[C@@H](O[C@@H]3C[C@](C)(O)[C@H](OC(=O)CC(C)C)[C@H](C)O3)[C@@H](N(C)C)[C@@H]2O)[C@@H](CC=O)C[C@@H](C)[C@@H](O)/C=C\C=C/C[C@@H](C)OC(=O)C[C@H]1OC(C)=O,N140,2.239,"inhibitor, partial curve"
CO[C@H]1[C@H](O[C@H]2O[C@@H](C)[C@@H](O[C@@H]3C[C@](C)(O)[C@H](OC(=O)CC(C)C)[C@H](C)O3)[C@@H](N(C)C)[C@@H]2O)[C@@H](CC=O)C[C@@H](C)[C@@H](O)/C=C\C=C/C[C@@H](C)OC(=O)C[C@H]1OC(C)=O,DIV14,7.208,"inhibitor, single point"
CO[C@H]1[C@H](O[C@H]2O[C@@H](C)[C@@H](O[C@@H]3C[C@](C)(O)[C@H](OC(=O)CC(C)C)[C@H](C)O3)[C@@H](N(C)C)[C@@H]2O)[C@@H](CC=O)C[C@@H](C)[C@@H](O)/C=C\C=C/C[C@@H](C)OC(=O)C[C@H]1OC(C)=O,CP192,5.103,"inhibitor, single point"
CO[C@H]1[C@H](O[C@H]2O[C@@H](C)[C@@H](O[C@@H]3C[C@](C)(O)[C@H](OC(=O)CC(C)C)[C@H](C)O3)[C@@H](N(C)C)[C@@H]2O)[C@@H](CC=O)C[C@@H](C)[C@@H](O)/C=C\C=C/C[C@@H](C)OC(=O)C[C@H]1OC(C)=O,PC26,8.087,"inhibitor, single point"
CO[C@H]1[C@H](O[C@H]2O[C@@H](C)[C@@H](O[C@@H]3C[C@](C)(O)[C@H](OC(=O)CC(C)C)[C@H](C)O3)[C@@H](N(C)C)[C@@H]2O)[C@@H](CC=O)C[C@@H](C)[C@@H](O)/C=C\C=C/C[C@@H](C)OC(=O)C[C@H]1OC(C)=O,CP215,1.811,"inhibitor, partial curve"
CO[C@H]1[C@H](O[C@H]2O[C@@H](C)[C@@H](O[C@@H]3C[C@](C)(O)[C@H](OC(=O)CC(C)C)[C@H](C)O3)[C@@H](N(C)C)[C@@H]2O)[C@@H](CC=O)C[C@@H](C)[C@@H](O)/C=C\C=C/C[C@@H](C)OC(=O)C[C@H]1OC(C)=O,CP247,3.162,"inhibitor, single point"
CO[C@H]1[C@H](O[C@H]2O[C@@H](C)[C@@H](O[C@@H]3C[C@](C)(O)[C@H](OC(=O)CC(C)C)[C@H](C)O3)[C@@H](N(C)C)[C@@H]2O)[C@@H](CC=O)C[C@@H](C)[C@@H](O)/C=C\C=C/C[C@@H](C)OC(=O)C[C@H]1OC(C)=O,C2A,3.162,"inhibitor, partial curve"
CO[C@H]1[C@H](O[C@H]2O[C@@H](C)[C@@H](O[C@@H]3C[C@](C)(O)[C@H](OC(=O)CC(C)C)[C@H](C)O3)[C@@H](N(C)C)[C@@H]2O)[C@@H](CC=O)C[C@@H](C)[C@@H](O)/C=C\C=C/C[C@@H](C)OC(=O)C[C@H]1OC(C)=O,AS120,2.512,"inhibitor, partial curve"
CO[C@H]1[C@H](O[C@H]2O[C@@H](C)[C@@H](O[C@@H]3C[C@](C)(O)[C@H](OC(=O)CC(C)C)[C@H](C)O3)[C@@H](N(C)C)[C@@H]2O)[C@@H](CC=O)C[C@@H](C)[C@@H](O)/C=C\C=C/C[C@@H](C)OC(=O)C[C@H]1OC(C)=O,CP203,3.22,"inhibitor, partial curve"